“And” between values parts separate entries of the source, which are not always exact repeats. Equal values may be shown once. The shares of active, inactive and inconclusive entries below differ from those in the screen. Where the call is inconclusive, the potency comes from a doubtful curve fit. A structure can be active in one record and inactive in another. The source made the active and inactive calls. Rule for the calls: active = hit-call score of the fitted dose curve at least 0.9, where 1 is the maximum; inconclusive = response in the unintended direction; inactive = score below 0.9.
Target: human Retinoic Acid Receptor gamma (RARg), RARG (gene 5916) (UniProt P13631)
Experiment: ATG_RARg_TRANS: Attagene TRANS-FACTORIAL HepG2 Assay for human Retinoic Acid Receptor gamma (RARg) (AID 2283009);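 for AC50: AC50 is for reporter induction above DMSO meaning RARg activation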
Method in brief: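 Readout: reporter transcript levels via RT-PCR, 6-FAM primer-extension labelling, HpaI digestion and capillary electrophoresis. Cells: HepG2 carrying transfected RARg-GAL4 chimera plus UAS reporter set. Dosing 24 h; DMSO negative control.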

The chains behind the UniProt entries cited, without tags or fusion partners. Where a name states a change or a piece, a line headed by the entry shows the natural chain unless it says otherwise.
UniProt P13631, whole entry, looked up: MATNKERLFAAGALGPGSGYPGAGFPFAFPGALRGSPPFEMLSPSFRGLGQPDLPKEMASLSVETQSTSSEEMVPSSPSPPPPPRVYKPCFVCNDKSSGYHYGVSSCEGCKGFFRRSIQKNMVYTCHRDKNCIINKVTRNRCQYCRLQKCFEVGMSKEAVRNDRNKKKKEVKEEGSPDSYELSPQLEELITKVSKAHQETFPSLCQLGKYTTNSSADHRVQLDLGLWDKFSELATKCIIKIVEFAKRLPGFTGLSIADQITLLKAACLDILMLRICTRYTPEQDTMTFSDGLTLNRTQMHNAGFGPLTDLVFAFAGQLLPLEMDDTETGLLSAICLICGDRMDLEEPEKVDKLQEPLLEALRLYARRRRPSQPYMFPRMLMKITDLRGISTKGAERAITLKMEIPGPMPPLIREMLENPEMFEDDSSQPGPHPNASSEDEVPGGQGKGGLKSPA
UniProt Q92753: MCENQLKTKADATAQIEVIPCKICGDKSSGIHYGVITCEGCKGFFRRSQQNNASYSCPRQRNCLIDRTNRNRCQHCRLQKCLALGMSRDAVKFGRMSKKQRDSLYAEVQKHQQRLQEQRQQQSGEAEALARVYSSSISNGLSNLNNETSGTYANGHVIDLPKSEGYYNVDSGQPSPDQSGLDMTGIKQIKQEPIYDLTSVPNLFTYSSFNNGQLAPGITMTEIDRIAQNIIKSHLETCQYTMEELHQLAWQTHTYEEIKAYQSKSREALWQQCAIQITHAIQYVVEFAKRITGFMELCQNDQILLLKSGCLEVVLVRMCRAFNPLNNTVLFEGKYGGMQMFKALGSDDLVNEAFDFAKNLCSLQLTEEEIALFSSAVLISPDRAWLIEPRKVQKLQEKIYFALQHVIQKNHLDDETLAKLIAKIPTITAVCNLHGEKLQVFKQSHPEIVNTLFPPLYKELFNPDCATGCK

Compound	AC50	outcome
CC(C)(C)c1cc([N+](=O)[O-])cc(C(C)(C)C)c1O	–	inactive
O=C(O)COc1nc(Cl)c(Cl)cc1Cl	–	inactive
O=C(Cc1ccccc1)c1ccccc1	–	inactive
O=C(Cl)OCCOCCOC(=O)Cl	inconclusive: 100000 nM	–
C=CCC1=C(C)C(OC(=O)C2C(C=C(C)C)C2(C)C)CC1=O (configuration not stated)	–	inactive
C=CC(=O)OCC(F)(F)C(F)F	–	inactive
COP(=S)(OC)SCn1nnc2ccccc2c1=O	inconclusive: 126 nM	–
CC(C)=CC1C(C(=O)OCc2cccc(Oc3ccccc3)c2)C1(C)C (configuration not stated)	inconclusive: 26.6 nM	–
CCCCCCCCCCCCCN1CC(C)OC(C)C1 (configuration not stated)	–	inactive
CCNS(=O)(=O)C(F)(F)C(F)(F)C(F)(F)C(F)(F)C(F)(F)C(F)(F)C(F)(F)C(F)(F)F	–	inactive
COc1ccc(O)c(C(C)(C)C)c1	–	inactive

Target: human RAR-related Orphan Receptor beta (RORb), RORB (gene 6096) (UniProt Q92753)
Experiment: ATG_RORb_TRANS: Attagene TRANS-FACTORIAL HepG2 Assay for human RAR-related Orphan Receptor beta (RORb) (AID 2283010);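 for AC50: potency for increased reporter mRNA meaning activation of RORb-Gal4 chimera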
Method in brief: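 HepG2, transient MRTU transfection (GAL4-UAS reporters, exogenous NR-Gal4 chimeras); 24 h compound exposure; total RNA → RT-PCR → 6-FAM primer extension → HpaI digest → CE fluorescence. Positive direction vs DMSO baseline.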

Compound	AC50	outcome
CCC[CH2][Sn]([Cl])([CH2]CCC)[CH2]CCC	inconclusive: 0.301 µM	–
CC(C)(C)c1cc([N+](=O)[O-])cc(C(C)(C)C)c1O	inconclusive: 1.08 µM	–
O=c1oc2ccccc2c(O)c1C(CC(O)c1ccc(-c2ccc(Br)cc2)cc1)c1ccccc1 (configuration not stated)	inconclusive: 11.8 µM	inactive
CCC(C)c1ccc(O)cc1 (configuration not stated)	inconclusive: 181 µM	–
O=C(Cc1ccccc1)c1ccccc1	inconclusive: 100 µM	–
O=C(Cl)OCCOCCOC(=O)Cl	–	inactive
CC(=[OH+])/C=C(/C)[O-].CC(=[OH+])/C=C(/C)[O-].CC(=[OH+])/C=C(/C)[O-].[Al]	–	inactive
Cc1ccccc1C(=O)Nc1cccc(OC(C)C)c1	inconclusive: 100 µM	–
Sc1ccccc1	inconclusive: 100 µM	–
O=C(O)C(F)(OC(F)(F)C(F)(F)C(F)(F)F)C(F)(F)F (configuration not stated)	inconclusive: 25 µM and inconclusive: 274 µM	inactive
CNC(=S)S	–	inactive
C=CC(=O)OCC(F)(F)C(F)F	inconclusive: 273 µM	–
SCc1ccco1	inconclusive: 0.0823 µM	–
O=[N+]([O-])c1ccc(Oc2ccc(Cl)cc2Cl)cc1	inconclusive: 100 µM	–
CSC1=N[C@@](C)(c2ccccc2)C(=O)N1Nc1ccccc1	inconclusive: 50 µM	–
COP(=S)(OC)SCn1nnc2ccccc2c1=O	–	inactive
CC(C)=CC1C(C(=O)OCc2cccc(Oc3ccccc3)c2)C1(C)C (configuration not stated)	–	inactive
CO/N=C(/C1=NOCCO1)c1ccccc1Oc1ncnc(Oc2ccccc2Cl)c1F	inconclusive: 17.8 µM	–
CC(C)CCCCCCCOP(=O)(Oc1ccccc1)Oc1ccccc1	inconclusive: 50.8 µM	–
Clc1ccc(C(c2ccc(Cl)cc2)C(Cl)Cl)cc1	inconclusive: 33.4 µM	–
CCCCCCCCCCCCCN1CC(C)OC(C)C1 (configuration not stated)	inconclusive: 31.9 µM	–
CCNS(=O)(=O)C(F)(F)C(F)(F)C(F)(F)C(F)(F)C(F)(F)C(F)(F)C(F)(F)C(F)(F)F	inconclusive: 150 µM	inactive

Source: PubChem BioAssay (EPA / NIEHS)
